Two molecules from article PMC8792056 (2022) can be followed below.

By UniProt entry, the sequences of proteins in these tests, tags left out. Where a name states a change or a piece, a line headed by the entry shows the natural chain unless it says otherwise.
UniProt P35637: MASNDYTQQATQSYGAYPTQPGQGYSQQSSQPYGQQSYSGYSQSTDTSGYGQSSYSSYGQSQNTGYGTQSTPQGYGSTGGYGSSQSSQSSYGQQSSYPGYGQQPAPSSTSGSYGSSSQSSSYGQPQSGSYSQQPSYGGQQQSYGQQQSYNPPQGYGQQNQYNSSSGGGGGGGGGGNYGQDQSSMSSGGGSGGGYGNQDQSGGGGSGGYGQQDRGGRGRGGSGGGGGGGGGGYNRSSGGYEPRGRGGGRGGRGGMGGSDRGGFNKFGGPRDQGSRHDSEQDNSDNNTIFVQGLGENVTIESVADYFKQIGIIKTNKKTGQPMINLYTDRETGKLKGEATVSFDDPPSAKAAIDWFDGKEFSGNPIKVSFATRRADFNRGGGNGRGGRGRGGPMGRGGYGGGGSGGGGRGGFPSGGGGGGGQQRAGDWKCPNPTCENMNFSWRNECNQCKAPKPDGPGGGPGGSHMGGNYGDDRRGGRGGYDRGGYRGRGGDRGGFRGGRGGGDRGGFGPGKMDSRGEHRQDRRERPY

Assay [1] concerns the target T1, DNAJB14-FL-FLAG (human) (UniProt Q8TBM8).
T1 sequence: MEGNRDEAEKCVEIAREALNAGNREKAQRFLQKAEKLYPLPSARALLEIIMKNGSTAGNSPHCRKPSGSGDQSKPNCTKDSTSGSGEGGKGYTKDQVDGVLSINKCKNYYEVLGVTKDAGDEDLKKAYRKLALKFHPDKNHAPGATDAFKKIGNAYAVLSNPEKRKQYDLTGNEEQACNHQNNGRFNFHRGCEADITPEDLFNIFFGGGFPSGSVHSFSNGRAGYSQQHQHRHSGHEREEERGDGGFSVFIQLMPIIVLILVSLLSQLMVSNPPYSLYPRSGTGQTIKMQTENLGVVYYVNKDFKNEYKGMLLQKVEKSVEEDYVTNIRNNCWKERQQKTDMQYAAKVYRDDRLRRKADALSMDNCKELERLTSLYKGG
Nature of the assay: co-IP; HEK293T cells co-transfected with FLAG-tagged DNAJB14 forms and DNAJB12-FL-mOrange; lysis in 50 mM HEPES pH 7.9, 0.5% Triton X-100, 5% glycerol, 150 mM NaCl, 2 mM EDTA; anti-FLAG M2 beads 3 h at 4 °C, 7 washes; blot with anti-RFP for mOrange, normalised to the FLAG band.

Assay [2] has as its target FUS-R521H-YFP (human) (UniProt P35637). Nature of the assay: co-IP; HEK293T cells co-transfected with FUS-R521H-YFP or FUS-WT-YFP and FLAG-tagged DNAJB14 forms; RIPA lysis; anti-GFP antibody cross-linked to Dynabeads Protein A, overnight at 4 °C, 4 washes with RIPA; blot with anti-FLAG.
Assay [3] has as its target FUS-WT-YFP (human) (UniProt P35637). The assay is described as above.

Results are given in words; binding and its absence hold for the method and conditions named. Binding seen in cells or lysates may run through a third protein. Some results given as binding are weak or reduced against the parent protein; the word gives no strength. Where a sequence is shown, tags or fusion partners need not be part of it.

B1: DNAJB12-FL-mOrange (protein, UniProt Q9NXW2-1 1-375)
chain: MESNKDEAERCISIALKAIQSNQPDRALRFLEKAQRLYPTPRVRALIESLNQKPQTAGDQPPPTDTTHATHRKAGGTDAPSANGEAGGESTKGYTAEQVAAVKRVKQCKDYYEILGVSRGASDEDLKKAYRRLALKFHPDKNHAPGATEAFKAIGTAYAVLSNPEKRKQYDQFGDDKSQAARHGHGHGDFHRGFEADISPEDLFNMFFGGGFPSSNVHVYSNGRMRYTYQQRQDRRDNQGDGGLGVFVQLMPILILILVSALSQLMVSSPPYSLSPRPSVGHIHRRVTDHLGVVYYVGDTFSEEYTGSSLKTVERNVEDDYIANLRNNCWKEKQQKEGLLYRARYFGDTDMYHRAQKMGTPSCSRLSEVQASLHG
As for B1, the binding entry in assay [1] is reported as “binds”.

B2: DNAJB14-FL-FLAG (protein, UniProt Q8TBM8-1 1-379)
chain: T1 sequence
Consider B2, for which the binding entry in assay [2] and in assay [3] was “binds” throughout.
